Test results: patent publication US10160738B2, “Neuroactive substituted cyclopent[a]anthracenes as modulators for GABA type-A receptors” (priority 2013, dated 2018)

Columns and labels:
[1] = test system: picrotoxin binding site on GABAA receptors; test: [35S]-TBPS displacement (inhibition of [35S]-TBPS binding); conditions: Hill coefficient; ± SEM
Protocol: The IC50 values for non-competitive displacers of [^35S]-TBPS from the picrotoxin binding site on GABAA receptors are reported in Table 1.
Results presented are from duplicate experiments performed in triplicate. Error limits are calculated as standard error of the mean. Methods used are known in the art (see Jiang, X., et al., Neurosteroid analogues. 9. Conformationally constrained pregnanes: structure-activity studies of 13,24-cyclo-18,21-dinorcholane analogues of the GABA modulatory and anesthetic steroids (3α,5α)- and […]. J. Med. Chem., 46: 5334-48 (2003)—the contents of which are hereby incorporated by reference in their entirety).

tadpole = test: Tadpole loss of righting reflex (LRR) and loss of swimming reflex (LSR); assay type: in vivo; conditions: Hill coefficient, ± SEM; for Tadpole LRR nHill: loss of righting reflex; for Tadpole LSR nHill: loss of swimming reflex
Protocol: Table 3 discloses the anesthetic effects of the compounds of the present disclosure. In particular, the anesthetic effect of the compounds of the present disclosure on Loss of Righting Reflex (LRR) and Loss of Swimming Reflex (LSR).
Methods used are known in the art (see Jiang, X., et al.). Error limits are calculated as standard error of the mean (N=10 or more animals at each of five or more different concentrations).

SMILES | Inhibition of [35S]-TBPS Binding nHill [1] | Tadpole LRR nHill (tadpole) | Tadpole LSR nHill (tadpole)
C[C@@]12CC[C@H]3C[C@H]4C[C@H](O)CC[C@@H]4C[C@@H]3[C@H]1CC=C2C#N [MQ-81, (3aR,5aS,6aS,8R,10aR,11aS,11bR)-8-Hydroxy-3a-methyl-3a,4,5,5a,6,6a,7,8,9,10,10a,11,11a,11b-Tetradecahydro-1H-cyclopent[a]anthracene-3-carbonitrile] | 1.54 ± 0.16 | −2.94 ± 0.28 | −36.4 ± 0.1
C[C@@]12CC[C@H]3C[C@H]4C[C@H](O)CC[C@@H]4C[C@@H]3[C@H]1CC[C@]21CO1 [MQ-65, (2′R,3R,3aR,5aS,6aS,8R,10aR,11aS,11bR)-Hexadecahydro-3a-methyl-spiro[3H-cyclopent[a]anthracene-3,2′-oxiran]-8-ol] | 0.78 ± 0.14 | −2.42 ± 0.24 | −33.2 ± 0.2
C[C@@]12CC[C@H]3C[C@H]4C[C@H](O)CC[C@@H]4C[C@@H]3[C@H]1CCC2=O [MQ-64, (3aR,5aS,6aS,8R,10aR,11aS,11bR)-Hexadecahydro-8-hydroxy-3a-methyl-3H-cyclopent[a]anthracen-3-one] | 1.13 ± 0.10 | −15.5 ± 1.0 | 
C[C@]12CC[C@@H]3C[C@@H]4C[C@@H](O)CC[C@H]4C[C@H]3[C@@H]1CC[C@@H]2C#N [MQ-77, (3S,3aS,5aR,6aR,8S,10aS,11aR,11bS)-Hexadecahydro-8-hydroxy-3a-methyl-cyclopent[a]anthracene-3-carbonitrile] | 0.88 ± 0.19 | −1.84 ± 0.31 | −36.4 ± 0.1
C[C@]12CC[C@@H]3C[C@@H]4C[C@@H](O)CC[C@H]4C[C@H]3[C@@H]1CC[C@@]21CO1 [MQ-75, (2′S,3S,3aS,5aR,6aR,8S,10aS,11aR,11bS)-Hexadecahydro-3a-methyl-spiro[3H-cyclopent[a]anthracene-3,2′-oxiran]-8-ol] | 1.99 ± 0.30 | −1.71 ± 0.42 | −15.9 ± 0.5
C[C@]12CC[C@@H]3C[C@@H]4C[C@@H](O)CC[C@H]4C[C@H]3[C@@H]1CCC2=O [MQ-74, (3aS,5aR,6aR,8S,10aS,11aR,11bS)-Hexadecahydro-8-hydroxy-3a-methyl-cyclopent[a]anthracen-3-one] | 1.02 ± 0.15 | −15.6 ± 1.8 | 
C[C@@]12CC[C@H]3C[C@H]4C[C@H](O)CC[C@@H]4C[C@@H]3[C@H]1CC(=O)C2 [MQ-82, (3aS,5aS,6aS,8R,10aR,11aS,11bR)-8-Hydroxy-3a-methyl-hexadecahydro-2H-cyclopenta[a]anthracen-2-one] | 1.09 ± 0.16 | −15.6 ± 1.1 | −27.0 ± 0.0
C[C@]12CC[C@@H]3C[C@@H]4C[C@@H](O)CC[C@H]4C[C@H]3[C@@H]1CC=C2C#N [MQ-76, (3aS,5aR,6aR,8S,10aS,11aR,11bS)-8-Hydroxy-3a-methyl-3a,4,5,5a,6,6a,7,8,9,10,10a,11,11a,11b-Tetradecahydro-1H-cyclopent[a]anthracene-3-carbonitrile] | 1.04 ± 0.22 | −2.31 ± 0.08 | −36.3 ± 0.1
